Reference: patent publication US11130793B2, “GLP-1/GLP-2 dual agonists” (Zealand Pharma A/S, priority 2016, dated 2021)
pEC50: −log10 of the molar value. At least one compound was matched to its structure with a doubt left. Square brackets hold non-standard residues; d marks the D form. Peptide text beside a SMILES is read from it. Aib = CC(C)(N)C(=O)O

Amino acid sequences for entries named in this document (tags omitted). Residues count along the entry.
UniProt P43220, 24-463: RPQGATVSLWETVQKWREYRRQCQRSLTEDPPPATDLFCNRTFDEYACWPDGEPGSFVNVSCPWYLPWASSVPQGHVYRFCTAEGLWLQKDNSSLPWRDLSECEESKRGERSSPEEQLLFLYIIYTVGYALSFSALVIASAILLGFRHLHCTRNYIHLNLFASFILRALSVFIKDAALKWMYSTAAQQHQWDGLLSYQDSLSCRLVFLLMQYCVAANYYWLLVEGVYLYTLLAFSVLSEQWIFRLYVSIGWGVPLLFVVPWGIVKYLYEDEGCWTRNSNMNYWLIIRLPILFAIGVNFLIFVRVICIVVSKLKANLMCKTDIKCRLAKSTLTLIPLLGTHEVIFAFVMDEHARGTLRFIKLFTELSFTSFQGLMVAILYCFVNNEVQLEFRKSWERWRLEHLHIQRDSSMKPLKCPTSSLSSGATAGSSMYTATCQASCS

Experiments:
human GLP-1 receptor = target: T1, human GLP-1 receptor (Homo sapiens, UniProt P43220); assay: GLP-1 receptor potency assay (cAMP AlphaScreen, HEK293 cells stably expressing GLP-1R); format: cell-based; conditions: cAMP response, HEK293 cells expressing human GLP-1R
T1 construct: expressed in transfected cells
Text: (§1) One useful in vitro assay for measuring GLP-1 and GLP-2 receptor activity is quantitation of cAMP, i.e. 3′-5′-cyclic adenosine monophosphate, which is a second messenger essential in many biological processes, and one of the most ubiquitous mechanisms for regulating cellular functions. […] Test compounds eliciting an increase in the intracellular level of cAMP can be tested in these assays, and the response normalized relative to a positive and negative control (vehicle) to calculate the EC50 and maximal response from the concentration response curve using the 4-parameter logistic (4PL) nonlinear model for curve fitting.
The cDNA encoding the human glucagon-like peptide 1 receptor (GLP-1R) (primary accession number P43220) was cloned from the cDNA BC112126 (MGC:138331/IMAGE:8327594). The DNA encoding the GLP-1-R was amplified by PCR using primers encoding terminal restriction sites for subcloning. The 5′-end primers additionally encoded a near Kozak consensus sequence to ensure efficient translation. […] The PCR products encoding the GLP-1-R were subcloned into a mammalian expression vector containing a neomycin (G418) resistance marker. […]
(§2) The cAMP AlphaScreen assay from Perkin Elmer was used to quantitate the cAMP response to activation of the GLP1 and GLP2 receptor, respectively. […]

human GLP-2 receptor = target: T2, human GLP-2 receptor (Homo sapiens, UniProt O95838, D470N); assay: GLP-2 receptor potency assay (cAMP AlphaScreen, HEK293 cells stably expressing GLP-2R); format: cell-based; conditions: cAMP response, HEK293 cells expressing human GLP-2R
T2 sequence (O95838 1-553 D470N): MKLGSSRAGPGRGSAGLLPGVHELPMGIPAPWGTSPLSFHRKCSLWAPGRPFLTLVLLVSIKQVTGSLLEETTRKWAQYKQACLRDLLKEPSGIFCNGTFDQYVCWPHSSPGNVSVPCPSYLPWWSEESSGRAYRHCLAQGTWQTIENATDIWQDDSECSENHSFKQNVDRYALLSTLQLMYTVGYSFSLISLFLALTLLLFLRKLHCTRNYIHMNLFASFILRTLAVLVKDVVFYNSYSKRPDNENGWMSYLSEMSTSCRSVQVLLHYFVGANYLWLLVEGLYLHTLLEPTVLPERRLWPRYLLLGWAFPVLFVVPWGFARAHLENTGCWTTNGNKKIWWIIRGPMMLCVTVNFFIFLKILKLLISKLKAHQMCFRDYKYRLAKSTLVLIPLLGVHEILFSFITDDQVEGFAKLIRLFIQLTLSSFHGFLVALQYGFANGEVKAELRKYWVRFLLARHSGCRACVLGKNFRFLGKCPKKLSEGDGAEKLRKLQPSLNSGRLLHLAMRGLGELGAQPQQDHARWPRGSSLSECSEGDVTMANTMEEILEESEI
Text: as §1
The hGLP2-R was purchased from MRC-geneservice, Babraham, Cambridge as an Image clone: 5363415 (11924-I17). For subcloning into a mammalian expression vector, primers for subcloning were obtained from DNA-Technology, Risskov, Denmark. The 5′ and 3′ primers used for the PCR reaction include terminal restriction sites for cloning and the context of the 5′ primer is modified to a Kozak consensus without changing the sequence of the product encoded by the ORF. […]
as §2

Structure (SMILES): CC[C@H](C)[C@H](NC(=O)[C@H](Cc1ccccc1)NC(=O)[C@H](CC(=O)O)NC(=O)[C@H](CCCNC(=N)N)NC(=O)[C@H](C)NC(=O)[C@H](C)NC(=O)[C@H](CCC(N)=O)NC(=O)[C@H](CCC(=O)O)NC(=O)[C@H](CC(=O)O)NC(=O)[C@H](CC(C)C)NC(=O)[C@@H](NC(=O)[C@@H](NC(=O)[C@H](C)NC(=O)[C@H](CC(C)C)NC(=O)[C@H](CCC(=O)O)NC(=O)[C@H](CO)NC(=O)[C@@H](NC(=O)[C@H](Cc1ccccc1)NC(=O)[C@H](CO)NC(=O)CNC(=O)[C@H](CCC(=O)O)NC(=O)C(C)(C)NC(=O)[C@@H](N)Cc1c[nH]cn1)[C@@H](C)O)[C@@H](C)O)[C@@H](C)CC)C(=O)N[C@@H](C)C(=O)N[C@@H](Cc1c[nH]c2ccccc12)C(=O)N[C@@H](CC(C)C)C(=O)N[C@@H](Cc1ccc(O)cc1)C(=O)N[C@@H](CCCNC(=N)N)C(=O)N[C@@H](Cc1c[nH]cn1)C(=O)N[C@@H](CCCCN)C(=O)N[C@H](C(=O)N[C@H](C(=O)N[C@@H](CC(=O)O)C(=O)O)[C@@H](C)O)[C@@H](C)CC [Compound 30] (H-H[Aib]EGSFTSELATILDEQAARDFIAWLYRHKITD-OH)
- pEC50 (human GLP-1 receptor): 10.00
- pEC50 (human GLP-2 receptor): 10.47

Structure (SMILES): CC[C@H](C)[C@H](NC(=O)[C@H](Cc1ccccc1)NC(=O)[C@H](CC(=O)O)NC(=O)[C@H](CCCNC(=N)N)NC(=O)[C@H](C)NC(=O)[C@H](C)NC(=O)[C@H](CCC(N)=O)NC(=O)[C@H](CCC(=O)O)NC(=O)[C@H](CC(=O)O)NC(=O)[C@H](CC(C)C)NC(=O)[C@@H](NC(=O)[C@@H](NC(=O)[C@H](CO)NC(=O)[C@H](CC(C)C)NC(=O)[C@H](CCC(=O)O)NC(=O)[C@H](CO)NC(=O)[C@@H](NC(=O)[C@H](Cc1ccccc1)NC(=O)[C@@H](NC(=O)CNC(=O)[C@H](CCC(=O)O)NC(=O)C(C)(C)NC(=O)[C@@H](N)Cc1c[nH]cn1)[C@@H](C)O)[C@@H](C)O)[C@@H](C)O)[C@@H](C)CC)C(=O)N[C@@H](C)C(=O)N[C@@H](Cc1c[nH]c2ccccc12)C(=O)N[C@@H](CC(C)C)C(=O)N[C@@H](Cc1c[nH]cn1)C(=O)N[C@@H](C)C(=O)N[C@@H](CCC(N)=O)C(=O)N[C@@H](CCCCN)C(=O)N[C@H](C(=O)N[C@H](C(=O)N[C@@H](CC(=O)O)C(=O)O)[C@@H](C)O)[C@@H](C)CC [Compound 27] (H-H[Aib]EGTFTSELSTILDEQAARDFIAWLHAQKITD-OH)
- pEC50 (human GLP-1 receptor): 9.92
- pEC50 (human GLP-2 receptor): 9.43
